In article PMC7533251:
These are yes or no findings as the source states them, for the method shown. In cells and extracts the contact can be indirect. A result given as binding can be weak or reduced; the word gives no strength.

T1: Dickkopf 1 (DKK1) (mouse (endogenous in mouse AEC2 cells)) (UniProt O54908)
T1 sequence: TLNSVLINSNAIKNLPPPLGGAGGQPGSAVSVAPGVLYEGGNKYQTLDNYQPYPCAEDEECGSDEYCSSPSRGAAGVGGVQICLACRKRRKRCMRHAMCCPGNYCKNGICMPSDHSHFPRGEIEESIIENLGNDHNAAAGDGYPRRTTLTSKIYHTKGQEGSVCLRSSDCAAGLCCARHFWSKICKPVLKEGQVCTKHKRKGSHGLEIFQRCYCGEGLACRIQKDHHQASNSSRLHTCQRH


Columns and labels:
[1] = target: T1, Dickkopf 1 (DKK1) (mouse (endogenous in mouse AEC2 cells)); assay: co-IP; endogenous proteins in WT mouse AEC2 cell lysate; RAB6 antibody, DKK1 antibody or IgG cross-linked to protein A/G agarose beads, incubated overnight at 4 °C, eluted, Western blot; both directions
[2] = target: Ras-related protein 6 (RAB6) (mouse (endogenous in mouse AEC2 cells)); assay: as above

binding [1]	binding [2]	Molecule
binds		Ras-related protein 6 (RAB6) (mouse (endogenous in mouse AEC2 cells))
	binds	Dickkopf 1 (DKK1) (protein, UniProt O54908 32-272) TLNSVLINSNAIKNLPPPLGGAGGQPGSAVSVAPGVLYEGGNKYQTLDNYQPYPCAEDEECGSDEYCSSPSRGAAGVGGVQICLACRKRRKRCMRHAMCCPGNYCKNGICMPSDHSHFPRGEIEESIIENLGNDHNAAAGDGYPRRTTLTSKIYHTKGQEGSVCLRSSDCAAGLCCARHFWSKICKPVLKEGQVCTKHKRKGSHGLEIFQRCYCGEGLACRIQKDHHQASNSSRLHTCQRH
